# Assay results as given in PubChem BioAssay (NCATS).
# Inconclusive results, whose numbers are uncertain, are shown with a selection of clear calls. Entries that show only a call come without a potency. Potencies of inconclusive entries are doubtful fits and often do not repeat. Activity calls are given as the source filed them. The call rests on the fitted dose curve; in most records, active means well fitted cell-killing curve with a large enough effect; inconclusive means small, poorly fitted or top-dose-only effect, or effect the other way; inactive means no such curve, though single readings can be large or run the other way.
# Assay: Quantitative High-Throughput drug screen in 47 multiple myeloma cell lines against the NCATS MIPE library collection: RPMI8226_ATCC cell viability assay (AID 1919871); further: nearly all actives have a fitted effect of over 30% in size
# Conditions: RPMI8226 myeloma viability, CellTiter-Glo ATP luminescence, 48 h; series mostly up to 45.8 µM
# From the text: PI: Beverly A. Mock Ph.D.
# Laboratory of Cancer Biology and Genetics,
# Center for Cancer Research, National Cancer Institute,
# National Institute of Health, Bethesda, Maryland
# Drug resistance and disease progression are common in multiple myeloma (MM) patients, underscoring the need for new therapeutic combinations. […] We hypothesized that effective combinations would reduce MYC expression and enhance p16 activity. […] These preclinical data identify potentially useful drug combinations for evaluation in drug-resistant MM and reveal potential mechanisms of combined drug sensitivity.
# Described herein is the primary MIPE qHTS used to cherrypick compounds. Validated compounds were then further tested for potential synergistic activiy.
# [1] Peat TJ, Gaikwad SM, Dubois W, Gyabaah-Kessie N, Zhang S, Gorjifard S, Phyo Z, Andres M, Hughitt VK, Simpson RM, Miller MA, Girvin AT, Taylor A, Williams D, D'Antonio N, Zhang Y, Rajagopalan A, Flietner E, Wilson K, Zhang X, Shinn P, Klumpp-Thomas C, McKnight C, Itkin Z, Chen L, Kazandijian D, Zhang J, Michalowski AM, Simmons JK, Keats J, Thomas CJ, Mock BA. Drug combinations identified by high-throughput screening promote cell cycle transition and upregulate Smad pathways in myeloma. Cancer Lett. 2023 Aug 1;568:216284. doi: 10.1016/j.canlet.2023.216284. Epub 2023 Jun 24. PMID: 37356470; PMCID: PMC10408729.
# SEQUENCE No. (e.g., 1, 2, 3, etc.); […] (e.g., Cells, Incubation, Reagent, etc.); VALUE and DESCRIPTION.
# 1; Cells; 5 uL; white, solid bottom 1536-well Greiner assay plate.
# 2; Compounds; 23 nL; Kalypsis pin tool (Wako USA) equipped with a 1536-well pin head to transfer to the assay plates.
# 3; Incubation; 48 hours; 37C incubation.
# 4; Reagent;5uL; CellTiter Glo (Promega).
# 5; Detector; 425V; Luminescence; Viewlux PerkinElmer.
# NOTES (numbers refer to Sequence numbers above)
# 1. The cell-based screening methods employed in this study were like those previously published. Briefly, the corresponding myeloma cell lines were screened in 1,536-well plates with 500 cells, 5-uL per well for inhibition of cell viability (assessed by measuring ATP levels with CellTiterGlo).
# 2. NCATS MIPE 4.0 library of approved and investigational drugs were added using the Kalypsis pin tool. Wells treated with DMSO only for 100% viability and media only for 0% viability were used as controls.
# 3. The assay plates were covered and incubated for 48 hours in a 37C, 5% CO2 incubator with controlled humidity.
# 4. After 48 hours, CellTilter-GloTM luminescent substrate mix (Promega) reagent was added to the assay plate and plates we incubated for 5 min at room temperature.
# 5. Signal was measured as median relative luminescence units on a ViewLux (PerkinElmer) multiplate reader.
# [1] Heske CM, Davis MI, Baumgart JT, Wilson K, Gormally MV, Chen L, Zhang X, Ceribelli M, Duveau DY, Guha R, Ferrer M, Arnaldez FI, Ji J, Tran HL, Zhang Y, Mendoza A, Helman LJ, Thomas CJ. Matrix Screen Identifies Synergistic Combination of PARP Inhibitors and Nicotinamide Phosphoribosyltransferase (NAMPT) Inhibitors in Ewing Sarcoma. Clin Cancer Res. 2017 Dec 1;23(23):7301-7311. doi: 10.1158/1078-0432.CCR-17-1121. Epub 2017 Sep 12. PMID: 28899971; PMCID: PMC6636827.
# Potency means the concentration at half of the fitted maximal effect.
row,Compound,Potency
1,COc1cc(NS(=O)(=O)c2ccc(N)cc2)nc(OC)n1,inactive
2,CCCCCCCCCCCCc1ccc(S(=O)(=O)Nc2nncs2)cc1,"inconclusive: 13200 nM [cytotoxic, partial curve, poor fit]"
3,CN1c2cc(O)c(N=NC(N)=O)cc2CC1S(=O)(=O)O (stereo not given),inactive
4,COc1cc([C@@H]2c3cc4c(cc3[C@@H](O[C@@H]3O[C@@H]5CO[C@@H](c6cccs6)O[C@@H]5[C@H](O)[C@@H]3O)[C@H]3COC(=O)[C@H]23)OCO4)cc(OC)c1O,"inconclusive: 20900 nM [cytotoxic, partial curve]"
5,Nc1ccc(S(=O)(=O)Nc2ccnn2-c2ccccc2)cc1,inactive
6,CNC(=O)CN1CCC(Oc2cc3c(Nc4cccc(Cl)c4F)ncnc3cc2OC)CC1,"inconclusive: 372 nM [cytotoxic, full curve]"
7,COc1c(N2C[C@@H]3CCCN[C@H]3C2)c(F)cc2c(=O)c(C(=O)O)cn(C3CC3)c12,inactive
8,OC(CCN1CCCCC1)(c1ccccc1)C1CC2C=CC1C2 (stereo not given),"inconclusive: 3.3 nM [rising, full curve, poor fit]"
9,COc1ccc(CCC(=O)c2c(O)cc(O[C@@H]3O[C@H](CO)[C@@H](O)[C@H](O)[C@@H]3O[C@@H]3O[C@@H](C)[C@H](O)[C@@H](O)[C@@H]3O)cc2O)cc1O,"inconclusive: 590 nM [cytotoxic, partial curve, poor fit]"
10,COc1cc([C@@H]2c3cc4c(cc3[C@@H](O[C@@H]3O[C@@H]5CO[C@@H](C)O[C@@H]5[C@H](O)[C@@H]3O)[C@H]3COC(=O)[C@H]23)OCO4)cc(OC)c1O,"inconclusive: 20900 nM [cytotoxic, partial curve, poor fit]"
11,Nc1nc(=O)n([C@H]2C[C@H](O)[C@@H](CO)O2)cc1F,inactive
12,Nc1[nH]c(=O)ncc1F,"inconclusive: 935 nM [cytotoxic, full curve, poor fit]"
13,O=C(O)CO.[NH2-].[NH2-].[Pt+2],inactive
14,CC(=O)N[C@H]1[C@@H]([C@H](O)[C@H](O)CO)OC(C(=O)O)=C[C@@H]1N=C(N)N,inactive
15,COc1ccc([C@@H]2CNC(=O)C2)cc1OC1CCCC1,inactive
16,Nc1ccn(C[C@@H](CO)OCP(=O)(O)O)c(=O)n1,inactive
17,Cc1cn2cc(C(=O)N(C)CCO)cc(N[C@@H]3CCOc4cccc(C)c43)c2n1,inactive
18,CCC(C)(Oc1ccc(C2(c3ccc(OC(C)(CC)C(=O)O)cc3)CCCCC2)cc1)C(=O)O (stereo not given),inactive
19,CC(C)OC(=O)C(C)(C)Oc1ccc(C(=O)c2ccc(Cl)cc2)cc1,active: 18700 nM
20,CCN1CCN(C(=O)N[C@H](C(=O)N[C@@H]2C(=O)N3C(C(=O)O)=C(CSc4nnnn4C)CS[C@@H]23)c2ccc(O)cc2)C(=O)C1=O,"inconclusive: 18.9 nM [rising, full curve]"

# Two compounds picked at random from those above:
row,Compound,Potency
14,CC(=O)N[C@H]1[C@@H]([C@H](O)[C@H](O)CO)OC(C(=O)O)=C[C@@H]1N=C(N)N,inactive
5,Nc1ccc(S(=O)(=O)Nc2ccnn2-c2ccccc2)cc1,inactive
